# Reference: paper PMC12219410
# T1: mCherry::DRSH-1 (C. elegans) (UniProt O01326)
# T1 sequence: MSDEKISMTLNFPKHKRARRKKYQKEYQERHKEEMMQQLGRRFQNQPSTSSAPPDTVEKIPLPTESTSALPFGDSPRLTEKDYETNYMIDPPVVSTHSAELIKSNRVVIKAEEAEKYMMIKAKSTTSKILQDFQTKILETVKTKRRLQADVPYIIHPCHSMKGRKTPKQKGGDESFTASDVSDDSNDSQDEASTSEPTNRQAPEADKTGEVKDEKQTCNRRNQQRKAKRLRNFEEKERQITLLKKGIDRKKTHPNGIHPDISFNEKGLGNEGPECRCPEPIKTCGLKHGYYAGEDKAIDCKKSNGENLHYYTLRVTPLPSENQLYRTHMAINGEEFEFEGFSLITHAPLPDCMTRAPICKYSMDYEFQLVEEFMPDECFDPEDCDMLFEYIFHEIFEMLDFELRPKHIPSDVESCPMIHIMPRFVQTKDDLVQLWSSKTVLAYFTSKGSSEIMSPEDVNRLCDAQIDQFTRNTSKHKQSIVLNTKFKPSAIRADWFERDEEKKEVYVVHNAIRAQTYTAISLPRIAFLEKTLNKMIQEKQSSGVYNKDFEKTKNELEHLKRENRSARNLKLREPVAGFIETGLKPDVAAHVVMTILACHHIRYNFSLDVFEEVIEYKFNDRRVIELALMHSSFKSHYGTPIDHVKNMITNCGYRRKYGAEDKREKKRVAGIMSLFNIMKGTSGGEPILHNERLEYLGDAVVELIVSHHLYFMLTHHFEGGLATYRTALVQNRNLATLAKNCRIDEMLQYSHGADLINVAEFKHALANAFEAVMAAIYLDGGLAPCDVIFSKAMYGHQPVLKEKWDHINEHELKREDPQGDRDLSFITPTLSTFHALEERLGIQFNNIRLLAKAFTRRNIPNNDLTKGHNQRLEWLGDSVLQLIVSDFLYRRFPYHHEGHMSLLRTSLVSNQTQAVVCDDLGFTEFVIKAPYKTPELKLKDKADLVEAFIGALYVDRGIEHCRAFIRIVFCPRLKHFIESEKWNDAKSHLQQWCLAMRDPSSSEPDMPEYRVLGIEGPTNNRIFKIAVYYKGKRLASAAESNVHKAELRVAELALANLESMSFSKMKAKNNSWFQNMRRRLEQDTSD
# B1: DRSH-1 (enzyme, UniProt O01326 1-1086)
# chain: T1 sequence
# Assays:
# [1] = molecular target: T1, mCherry::DRSH-1 (C. elegans); assay: affinity purification with mass spectrometry; mCherry::DRSH-1 precipitated from gravid adult lysate with RFP-Trap magnetic agarose beads overnight at 4 °C; 25 mM Tris HCl pH 7.5, 150 mM NaCl, 1.5 mM MgCl2, 1 mM DTT, 0.1% Triton X-100; compared with wild-type animals; 4 biological replicates
# [2] = molecular target: PASH-1[G179R]::GFP (C. elegans); assay: affinity purification with mass spectrometry; PASH-1::GFP or PASH-1[G179R]::GFP precipitated from gravid adult lysate with GFP-Trap magnetic agarose beads overnight at 4 °C; 25 mM Tris HCl pH 7.5, 150 mM NaCl, 1.5 mM MgCl2, 1 mM DTT, 0.1% Triton X-100; compared with wild-type animals; 4 biological replicates
# PASH-1::GFP (C. elegans) = assay: as above
Molecule,binding [1],binding [2],binding (PASH-1::GFP (C. elegans))
PASH-1 (C. elegans (endogenous in C. elegans)),binds,–,–
B1,–,binds,binds

# These are yes or no findings as the source states them, for the method shown. In cells and extracts the contact can be indirect. These calls come from enrichment with a bait or labelling near it, and not all partners need be listed.
